Assay [1] has as its target T1, human prosaposin (PSAP), recombinant protein (human) (UniProt P07602).
T1 sequence (looked up): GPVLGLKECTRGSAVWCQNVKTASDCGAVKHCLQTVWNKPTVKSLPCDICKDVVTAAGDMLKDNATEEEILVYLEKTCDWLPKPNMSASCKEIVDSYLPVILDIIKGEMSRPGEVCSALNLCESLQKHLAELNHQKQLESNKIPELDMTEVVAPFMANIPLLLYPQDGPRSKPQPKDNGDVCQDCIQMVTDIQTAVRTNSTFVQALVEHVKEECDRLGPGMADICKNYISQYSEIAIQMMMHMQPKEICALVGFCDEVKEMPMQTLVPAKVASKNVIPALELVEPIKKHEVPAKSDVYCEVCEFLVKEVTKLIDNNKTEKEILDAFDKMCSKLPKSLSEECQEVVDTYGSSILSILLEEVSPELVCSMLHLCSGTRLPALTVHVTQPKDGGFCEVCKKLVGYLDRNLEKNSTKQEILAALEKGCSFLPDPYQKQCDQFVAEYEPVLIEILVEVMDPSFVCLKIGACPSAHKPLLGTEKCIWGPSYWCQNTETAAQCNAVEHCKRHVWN
In words: Biacore (SPR), His-tagged PGRN over immobilized human prosaposin. Background: SPR reads the build-up and loss of mass on a sensor chip optically.

Protein sequences, listed by entry. Tags and fused reporters are not part of them. Lines headed by an entry give the natural chain unless they say otherwise; changes in a name come on top.
UniProt P28799: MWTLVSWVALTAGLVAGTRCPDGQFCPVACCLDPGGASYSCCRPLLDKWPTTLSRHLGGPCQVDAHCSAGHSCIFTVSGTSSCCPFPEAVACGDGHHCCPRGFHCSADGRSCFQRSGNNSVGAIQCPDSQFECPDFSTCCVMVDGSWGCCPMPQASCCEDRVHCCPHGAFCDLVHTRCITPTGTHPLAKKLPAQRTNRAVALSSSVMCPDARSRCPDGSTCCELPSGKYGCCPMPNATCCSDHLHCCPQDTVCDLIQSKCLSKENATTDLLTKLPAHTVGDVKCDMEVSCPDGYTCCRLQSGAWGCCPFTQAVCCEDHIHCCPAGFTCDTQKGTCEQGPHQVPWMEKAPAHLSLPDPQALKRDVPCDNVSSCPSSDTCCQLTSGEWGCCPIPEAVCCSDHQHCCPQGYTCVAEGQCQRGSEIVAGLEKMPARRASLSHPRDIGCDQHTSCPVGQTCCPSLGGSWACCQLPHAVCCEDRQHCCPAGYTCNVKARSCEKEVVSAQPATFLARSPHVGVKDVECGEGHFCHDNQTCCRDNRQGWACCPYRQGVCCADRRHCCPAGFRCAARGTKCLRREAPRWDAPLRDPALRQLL

The target in assay [2] is T1, human prosaposin (PSAP), recombinant protein (human). As to the kind of experiment: Biacore sensorgrams, immobilized human PSAP from two sources.
For assay [3] the target is unchanged. In words: Biacore (SPR), His-tagged PGRNΔ3 over immobilized human prosaposin from two sources.

Results on two substances are retold here after patent US20260250711A1.

These are yes or no findings as the source states them, for the method shown. Some entries that bind do so weakly or less than the wild type.

As to “recombinant human His-tagged full-length wild-type progranulin (PGRNwt) (from UniProt P28799 18-593) (ligand)”, the binding result in assay [1] and in assay [2] was “binds” throughout.

“recombinant human His-tagged progranulin lacking the final three carboxy-terminal amino acids (PGRNΔ3) (from UniProt P28799 18-590) (ligand)”: the binding entry in assay [3] and in assay [2] was “binds” each time.
